# Percent effect of library compounds

Sequences of proteins named here, by UniProt entry; tags and fusion partners are left off. Residues count along the entry.
UniProt A4I591, 1-473: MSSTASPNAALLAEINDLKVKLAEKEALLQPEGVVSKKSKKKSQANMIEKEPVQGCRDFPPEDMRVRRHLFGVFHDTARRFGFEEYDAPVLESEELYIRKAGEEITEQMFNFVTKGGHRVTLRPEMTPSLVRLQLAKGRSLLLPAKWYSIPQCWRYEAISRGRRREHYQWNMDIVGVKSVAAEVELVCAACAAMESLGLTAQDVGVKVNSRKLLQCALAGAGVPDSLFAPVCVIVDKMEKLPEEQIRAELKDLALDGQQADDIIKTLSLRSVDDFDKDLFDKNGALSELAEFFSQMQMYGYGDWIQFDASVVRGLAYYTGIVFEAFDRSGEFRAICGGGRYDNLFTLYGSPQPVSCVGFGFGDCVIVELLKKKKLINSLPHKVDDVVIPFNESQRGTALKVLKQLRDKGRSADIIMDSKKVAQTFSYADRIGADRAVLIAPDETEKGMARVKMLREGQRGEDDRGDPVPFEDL
UniProt P9WNZ1, whole entry: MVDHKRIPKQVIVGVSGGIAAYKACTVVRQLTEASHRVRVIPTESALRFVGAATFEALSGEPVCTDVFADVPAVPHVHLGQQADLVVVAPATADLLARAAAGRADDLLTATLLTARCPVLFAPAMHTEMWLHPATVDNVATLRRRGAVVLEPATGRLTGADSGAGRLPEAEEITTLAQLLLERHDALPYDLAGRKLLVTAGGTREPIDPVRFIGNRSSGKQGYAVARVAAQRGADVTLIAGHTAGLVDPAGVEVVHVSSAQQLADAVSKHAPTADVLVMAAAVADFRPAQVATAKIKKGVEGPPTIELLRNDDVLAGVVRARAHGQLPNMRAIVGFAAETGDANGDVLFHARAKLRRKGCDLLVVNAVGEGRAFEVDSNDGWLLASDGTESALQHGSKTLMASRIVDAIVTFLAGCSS
UniProt Q8IDJ8, 1-583: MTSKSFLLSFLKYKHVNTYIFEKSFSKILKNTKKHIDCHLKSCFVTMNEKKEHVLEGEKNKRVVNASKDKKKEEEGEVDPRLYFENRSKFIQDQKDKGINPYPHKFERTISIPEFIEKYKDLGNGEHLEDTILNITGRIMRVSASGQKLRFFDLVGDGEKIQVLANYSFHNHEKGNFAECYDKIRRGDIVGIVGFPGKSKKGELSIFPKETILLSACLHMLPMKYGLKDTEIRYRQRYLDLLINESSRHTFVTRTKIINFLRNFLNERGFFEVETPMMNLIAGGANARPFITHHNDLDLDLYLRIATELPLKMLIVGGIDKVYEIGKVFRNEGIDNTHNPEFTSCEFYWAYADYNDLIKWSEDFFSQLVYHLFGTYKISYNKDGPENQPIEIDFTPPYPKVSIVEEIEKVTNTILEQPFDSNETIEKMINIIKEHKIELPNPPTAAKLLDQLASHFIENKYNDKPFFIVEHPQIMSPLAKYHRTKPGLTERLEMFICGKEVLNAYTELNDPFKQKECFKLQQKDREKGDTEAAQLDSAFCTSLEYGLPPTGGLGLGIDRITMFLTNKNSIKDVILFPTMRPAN
UniProt P9WFT3, whole entry: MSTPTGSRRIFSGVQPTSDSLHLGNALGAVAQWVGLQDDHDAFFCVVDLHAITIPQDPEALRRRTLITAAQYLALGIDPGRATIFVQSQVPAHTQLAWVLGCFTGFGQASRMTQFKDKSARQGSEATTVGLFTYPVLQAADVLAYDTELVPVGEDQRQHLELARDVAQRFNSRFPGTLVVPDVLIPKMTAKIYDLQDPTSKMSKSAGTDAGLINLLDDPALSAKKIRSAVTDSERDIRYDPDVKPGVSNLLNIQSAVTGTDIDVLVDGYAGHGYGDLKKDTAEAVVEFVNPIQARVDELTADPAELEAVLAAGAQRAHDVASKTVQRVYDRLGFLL

Source: ChEMBL document CHEMBL3988442, “University of Dundee, Small-Polar-MMV Screening Library” (2021).

LiHisRS: 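Histidine-tRNA ligase, Leishmania infantum (UniProt A4I591). Enzyme assay of histidyl-tRNA synthetase; the read-out is not stated. Concentration: 30 µM. Higher reads as stronger inhibition (inferred: compounds with an IC50 in retests scored well above the rest). The assay is labelled LdHisRS but filed under L. infantum. Size under these conditions: about 69,000 compounds, about 410 of them at 50% or above in at least one test.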
CoaBC: 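Enzyme assay of CoaBC with a phosphate dye (Biomol Green) read at 650 nm. Target: Coenzyme A biosynthesis protein CoaBC, Mycobacterium tuberculosis (UniProt P9WNZ1). Concentration: 30 µM. Higher reads as stronger inhibition, judged from the few compounds that gave an IC50. Most strong results did not repeat in a second test. Of about 67,000 compounds tested this way, about 40 (0.06%) reached 50% or more in at least one test.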
PfKRS1: 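Enzyme assay of the cytosolic lysyl-tRNA synthetase in 384-well plates, read by luminescence. Target: Lysine-tRNA ligase, Plasmodium falciparum 3D7 (UniProt Q8IDJ8). Tested at 30 µM. Direction is inferred from only a few compounds that gave an IC50; most scored high, so higher reads as stronger inhibition. Of about 69,000 compounds tested this way, about 49 (0.071%) reached 50% or more in at least one test.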
MtTrpRS: 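Enzyme assay of tryptophanyl-tRNA synthetase; the read-out is not stated. Target: Tryptophan-tRNA ligase, Mycobacterium tuberculosis (UniProt P9WFT3). Tested at 10 µM. Higher most likely means stronger inhibition; the record gives no direction and few retests gave an IC50. About 65,000 compounds were tested under these conditions; 0.098% (about 64) showed 50% or more at least once.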

Values are the deposited “Percent Effect”, in %.
How 0% and 100% were set is not recorded. Most values in the screen are low, and negative values occur.
This is an unselected part of the compounds tested.
A dash means the value is not listed here; it may have been measured.

compound	LiHisRS	CoaBC	PfKRS1	MtTrpRS
N#CCCN(CCN1CCOCC1)Cc1ccc(F)c(Br)c1	18.68	0.241	-1.625	-0.4531
c1cnnc(N2CCCC2CNCc2cnc(N3CCCC3)nc2)c1 (stereo not given)	8.108	-1.044	-1.016	-5.361
CCS(=O)(=O)CC(C)NC(=O)N(C)Cc1cc(Cl)cn1C (stereo not given)	8.571	-	-0.1326	-0.7224
O=C(c1ccnnc1)N1CC[C@@H](O)[C@@H]1Cc1ccccc1	17.43	8.941	4.316	-5.97
O=C(c1ccc2c(c1)OCO2)N1CCC(C(=O)O)(c2ccccc2)CC1	4.138	4.474	1.05	-6.655
c1coc(-c2noc(CN3CCCC3Cn3cncn3)n2)c1 (stereo not given)	10.17	1.05	1.013	-4.011
Cc1nn(C)cc1-c1cc(C(F)F)nc(NC2CCCCC2)n1	14.94	0.4474	2.561	-2.855
CC(=O)N1CCN(C(=O)CNc2ccc3ncsc3c2)CC1	58.77	4.126	6.632	-1.556
O=C(c1ccc(O)nc1)N1Cc2ccccc2OC2(CCOCC2)C1	7.368	1.946	1.682	-0.7536
CCCc1nnsc1C(=O)N1CCN(CC(O)c2ccco2)CC1 (stereo not given)	12.17	-3.594	6.304	-0.228
Clc1ccc2cccnc2c1CN1CCCC(Cn2cncn2)C1 (stereo not given)	21.54	4.047	1.669	1.846
O=C(NCCn1nc2ccccn2c1=O)c1cc(C2CC2)[nH]n1	-1.887	5.684	-3.852	-0.8244
Cc1cc(C(=O)NCCN2CCCC(C)C2)nn1C (stereo not given)	2.74	2.41	6.109	-3.917
CNS(=O)(=O)CC(=O)N1CCCc2cc(C(C)C)ccc21	17.28	1.408	0.8792	3.599
Cc1ccc(C(=O)N2CCCc3c(c(=O)n(C)n3C)C2)o1	-6.195	-6.526	-5.01	6.773
O=C1CCCN1Cc1nnc2n1CCN(Cc1ccco1)CC2	11.32	2.195	4.365	-
Cc1csc(C(C)(C)NCc2ncc(-c3ccccc3)o2)n1	10	-3.893	3.813	0
CCOC1CC2(CCN(Cc3nccn3C)CC2)C1	3.509	-1.525	2.042	8.481
Cc1nnsc1CN1C[C@H]2CC[C@@H]1CN(Cc1ccc(F)cc1)C2	8.333	2.404	-3.112	-5.936
O=C(CC(F)(F)F)NCC(O)c1ccc2ccccc2c1 (stereo not given)	8.219	4.781	5.117	-3.725
COCCC(=O)N1CCc2nc(N3CCOCC3)nc(NC(C)C)c2C1	15	5.315	2.797	-1.895
COCCN1CCC2(CCN(CC3CC3)CC2)C1=O	-3.509	-3.171	1.003	-6.413
Cc1occc1C(=O)N1C[C@@H](OCc2cccnc2)[C@H]2OCCC[C@@H]21	28.21	7.018	5.606	3.043
O=C(Cc1cccs1)N1CCC2(CCCN(CC3CCOCC3)C2)C1 (stereo not given)	32.89	-8.411	4.796	-4.503
CC(Oc1ccccc1C(F)(F)F)C(=O)NCCCC(N)=O (stereo not given)	11.29	-2.2	4.709	-1.958
CC(C)c1cc(N[C@H](C(N)=O)C(C)C)n2nccc2n1	4.918	-0.7673	3.874	-0.6299

The last 3 entries again:

- O=C(Cc1cccs1)N1CCC2(CCCN(CC3CCOCC3)C2)C1 (stereo not given) | LiHisRS: 32.89%; CoaBC: -8.411%; PfKRS1: 4.796%; MtTrpRS: -4.503%
- CC(Oc1ccccc1C(F)(F)F)C(=O)NCCCC(N)=O (stereo not given) | LiHisRS: 11.29%; CoaBC: -2.2%; PfKRS1: 4.709%; MtTrpRS: -1.958%
- CC(C)c1cc(N[C@H](C(N)=O)C(C)C)n2nccc2n1 | LiHisRS: 4.918%; CoaBC: -0.7673%; PfKRS1: 3.874%; MtTrpRS: -0.6299%